These are yes or no findings as the source states them, for the method shown. Some binding calls cover weakened binding; strength is not graded here.
Biological target: Human ornithine decarboxylase (human) (UniProt P11926)
Experiment: AUC; sedimentation velocity, 20 °C, 30 mM Tris-HCl pH 7.4, 25 mM NaCl; ODC fixed at 0.3 mg/mL, AZ 0.02-0.19 mg/mL (AZ/ODC molar ratio 0.25 to 3); all data sets fitted to the AB hetero-association model in SEDPHAT; both purified

B1: Human ornithine decarboxylase (enzyme, UniProt P11926 2-421)
chain: NNFGNEEFDCHFLDEGFTAKDILDQKINEVSSSDDKDAFYVADLGDILKKHLRWLKALPRVTPFYAVKCNDSKAIVKTLAATGTGFDCASKTEIQLVQSLGVPPERIIYANPCKQVSQIKYAANNGVQMMTFDSEVELMKVARAHPKAKLVLRIATDDSKAVCRLSVKFGATLRTSRLLLERAKELNIDVVGVSFHVGSGCTDPETFVQAISDARCVFDMGAEVGFSMYLLDIGGGFPGSEDVKLKFEEITGVINPALDKYFPSDSGVRIIAEPGRYYVASAFTLAVNIIAKKIVLKEQTGSDDEDESSEQTFMYYVNDGVYGSFNCILYDHAHVKPLLQKRPKPDEKYYSSSIWGPTCDGLDRIVERCDLPEMHVGDWMLFENMGAYTVAAASTFNGFQRPTIYYVMSGPAWQLMQQFQ
- binding: binds
